Reference: PubChem BioAssay AID248 (DTP/NCI, 2004)
The list does not hold the whole screen: its compounds were picked by chemical class. Other doses and runs of a compound may be missing. T/C is the treated group as % of the vehicle group. Where survival is the endpoint, this PubChem deposit counts one and a half times the control or more as active, and values a quarter to a half above the control carry no call in these data; other NCI protocols may use other cut-offs. Some entries show no survivor count and are marked so; the dose need not have been tolerated. Schedules are NCI's codes, read here as Q, the interval in days (D) or hours (H), X, the number of doses. Additions like (4×) give the number of equal values in this list. Some entries were tested several times; their values stand side by side, smallest first. Some schedule codes hold Z or #, which are not explained here.

System: L1210 leukemia ip in BDF1 mice, survival T/C
Assay: NCI In Vivo Anticancer Drug Screen. Data for tumor model L1210 Leukemia (intraperitoneal) in B6D2F1 (BDF1) mice
Details: higher T/C = longer survival

For `NC1CCCCC1.NP(=O)(O)N(CCCl)CCCl`, the T/C (T/C endpoint: mean survival time, dose: 50.0 mg/kg/injection, schedule: Q04DX003 (ip), vehicle: saline) was 143 % of control [survivor count not shown], the T/C (T/C endpoint: mean survival time, dose: 50.0 mg/kg/injection, schedule: Q04DX003 (ip), vehicle: water) was 138 % of control [survivor count not shown] and the T/C (T/C endpoint: mean survival time, dose: 50.0 mg/kg/injection, schedule: Q04DX005 (ip), vehicle: saline) was 144 % of control [survivor count not shown]. For the same compound, the T/C (T/C endpoint: mean survival time, dose: 50.0 mg/kg/injection, schedule: Q08DX002 (ip), vehicle: saline) was 135 % of control [survivor count not shown], the T/C (T/C endpoint: mean survival time, dose: 50.0 mg/kg/injection, schedule: Q08DX003 (ip), vehicle: saline) was 134 [survivor count not shown] and 136 % of control [survivor count not shown] and the T/C (T/C endpoint: mean survival time, dose: 50.0 mg/kg/injection, schedule: Q#A X034 (ip), vehicle: saline) was 130 % of control [survivor count not shown]. The T/C (T/C endpoint: mean survival time, dose: 54.0 mg/kg/injection, schedule: Q04DX003 (ip), vehicle: clinical formulation) was 188 % of control [survivor count not shown], the T/C (T/C endpoint: mean survival time, dose: 54.0 mg/kg/injection, schedule: Q04DX003 (ip), vehicle: water) was 184 % of control [survivor count not shown] and the T/C (T/C endpoint: mean survival time, dose: 59.0 mg/kg/injection, schedule: Q01DX001 (ip), vehicle: saline) was 132 % of control [survivor count not shown] (2×). The T/C (T/C endpoint: mean survival time, dose: 62.5 mg/kg/injection, schedule: Q08DX002 (ip), vehicle: water) was 134 [survivor count not shown] and 155 % of control [survivor count not shown], the T/C (T/C endpoint: mean survival time, dose: 66.0 mg/kg/injection, schedule: Q01DX001 (ip), vehicle: saline) was 167 % of control [survivor count not shown] and the T/C (T/C endpoint: mean survival time, dose: 80.0 mg/kg/injection, schedule: Q01DX001 (ip), vehicle: saline) was 206 % of control [survivor count not shown]. The T/C (T/C endpoint: mean survival time, dose: 80.0 mg/kg/injection, schedule: Q01DX001 (oral), vehicle: saline) was 100 % of control [survivor count not shown], the T/C (T/C endpoint: mean survival time, dose: 80.0 mg/kg/injection, schedule: Q01DX001 (sc), vehicle: saline) was 101 % of control [survivor count not shown] and the T/C (T/C endpoint: mean survival time, dose: 80.0 mg/kg/injection, schedule: Q01DX005 (ip), vehicle: saline) was 144 % of control [survivor count not shown]. The T/C (T/C endpoint: mean survival time, dose: 80.0 mg/kg/injection, schedule: Q01DX009 (ip), vehicle: saline) was 111 % of control [survivor count not shown], the T/C (T/C endpoint: mean survival time, dose: 80.0 mg/kg/injection, schedule: Q01DX009 (oral), vehicle: saline) was 113 % of control [survivor count not shown] and the T/C (T/C endpoint: mean survival time, dose: 80.0 mg/kg/injection, schedule: Q01DX009 (sc), vehicle: saline) was 120 % of control [survivor count not shown]. The T/C (T/C endpoint: mean survival time, dose: 80.0 mg/kg/injection, schedule: Q04DX003 (ip), vehicle: clinical formulation) was 225 % of control [survivor count not shown], the T/C (T/C endpoint: mean survival time, dose: 80.0 mg/kg/injection, schedule: Q04DX003 (ip), vehicle: saline) was 224 % of control [survivor count not shown] and the T/C (T/C endpoint: mean survival time, dose: 80.0 mg/kg/injection, schedule: Q04DX003 (ip), vehicle: water) was 242 % of control [survivor count not shown]. For the same compound, the T/C (T/C endpoint: mean survival time, dose: 89.0 mg/kg/injection, schedule: Q01DX001 (ip), vehicle: saline) was 133 % of control [survivor count not shown] (2×), the T/C (T/C endpoint: mean survival time, dose: 90.0 mg/kg/injection, schedule: Q01DX001 (ip), vehicle: saline) was 207 % of control [survivor count not shown] and the T/C (T/C endpoint: mean survival time, dose: 92.0 mg/kg/injection, schedule: Q01DX001 (ip), vehicle: saline) was 296 % of control [survivor count not shown]. The T/C (T/C endpoint: mean survival time, dose: 100.0 mg/kg/injection, schedule: Q01DX001 (ip), vehicle: saline) was 124 [survivor count not shown], 149 [survivor count not shown], 150 [survivor count not shown], 152 [survivor count not shown], 164 [survivor count not shown], 165 [survivor count not shown], 176 [survivor count not shown], 219 % of control [survivor count not shown], the T/C (T/C endpoint: mean survival time, dose: 100.0 mg/kg/injection, schedule: Q01DX001 (ip), vehicle: water) was 205 % of control [survivor count not shown] and the T/C (T/C endpoint: mean survival time, dose: 100.0 mg/kg/injection, schedule: Q01DX005 (ip), vehicle: saline) was 86 % of control [survivor count not shown]. The T/C (T/C endpoint: mean survival time, dose: 100.0 mg/kg/injection, schedule: Q01DX009 (ip), vehicle: saline) was 94 % of control [survivor count not shown], the T/C (T/C endpoint: mean survival time, dose: 100.0 mg/kg/injection, schedule: Q01DX017 (ip), vehicle: saline) was 104 % of control [survivor count not shown] and the T/C (T/C endpoint: mean survival time, dose: 100.0 mg/kg/injection, schedule: Q02DX005 (ip), vehicle: saline) was 226 % of control [survivor count not shown]. For the same compound, the T/C (T/C endpoint: mean survival time, dose: 100.0 mg/kg/injection, schedule: Q02DX009 (ip), vehicle: saline) was 185 [survivor count not shown] and 274 % of control [survivor count not shown], the T/C (T/C endpoint: mean survival time, dose: 100.0 mg/kg/injection, schedule: Q04DX003 (ip), vehicle: saline) was 227 % of control [survivor count not shown] and the T/C (T/C endpoint: mean survival time, dose: 100.0 mg/kg/injection, schedule: Q04DX003 (ip), vehicle: water) was 206 % of control [survivor count not shown]. For the same compound, the T/C (T/C endpoint: mean survival time, dose: 100.0 mg/kg/injection, schedule: Q04DX005 (ip), vehicle: saline) was 190 % of control [survivor count not shown], the T/C (T/C endpoint: mean survival time, dose: 100.0 mg/kg/injection, schedule: Q08DX002 (ip), vehicle: saline) was 252 % of control [survivor count not shown] and the T/C (T/C endpoint: mean survival time, dose: 100.0 mg/kg/injection, schedule: Q08DX003 (ip), vehicle: saline) was 135 [survivor count not shown] and 148 % of control [survivor count not shown]. For the same compound, the T/C (T/C endpoint: mean survival time, dose: 120.0 mg/kg/injection, schedule: Q04DX003 (ip), vehicle: clinical formulation) was 206 % of control [survivor count not shown], the T/C (T/C endpoint: mean survival time, dose: 120.0 mg/kg/injection, schedule: Q04DX003 (ip), vehicle: water) was 215 % of control [survivor count not shown] and the T/C (T/C endpoint: mean survival time, dose: 125.0 mg/kg/injection, schedule: Q08DX002 (ip), vehicle: water) was 171 [survivor count not shown] and 225 % of control [survivor count not shown]. The T/C (T/C endpoint: mean survival time, dose: 133.0 mg/kg/injection, schedule: Q01DX001 (ip), vehicle: saline) was 142 [survivor count not shown] (2×) and 241 % of control [survivor count not shown], the T/C (T/C endpoint: mean survival time, dose: 140.0 mg/kg/injection, schedule: Q01DX001 (ip), vehicle: saline) was 440 % of control [survivor count not shown] and the T/C (T/C endpoint: mean survival time, dose: 150.0 mg/kg/injection, schedule: Q01DX001 (ip), vehicle: saline) was 260 [survivor count not shown] and 264 % of control [survivor count not shown]. For the same compound, the T/C (T/C endpoint: mean survival time, dose: 160.0 mg/kg/injection, schedule: Q01DX001 (ip), vehicle: saline) was 120 % of control [survivor count not shown], the T/C (T/C endpoint: mean survival time, dose: 160.0 mg/kg/injection, schedule: Q01DX001 (oral), vehicle: saline) was 107 % of control [survivor count not shown] and the T/C (T/C endpoint: mean survival time, dose: 160.0 mg/kg/injection, schedule: Q01DX001 (sc), vehicle: saline) was 121 % of control [survivor count not shown]. For the same compound, the T/C (T/C endpoint: mean survival time, dose: 160.0 mg/kg/injection, schedule: Q01DX009 (oral), vehicle: saline) was 119 % of control [survivor count not shown], the T/C (T/C endpoint: mean survival time, dose: 200.0 mg/kg/injection, schedule: Q01DX001 (ip), vehicle: saline) was 192 [survivor count not shown] (2×), 202 [survivor count not shown], 206 [survivor count not shown] (2×), 274 [survivor count not shown], 297 [survivor count not shown], 329 [survivor count not shown], 332 [survivor count not shown], 487 % of control [survivor count not shown] and the T/C (T/C endpoint: mean survival time, dose: 200.0 mg/kg/injection, schedule: Q01DX001 (ip), vehicle: water) was 265 % of control [survivor count not shown]. The T/C (T/C endpoint: mean survival time, dose: 200.0 mg/kg/injection, schedule: Q02DX009 (ip), vehicle: saline) was 98 % of control [survivor count not shown], the T/C (T/C endpoint: mean survival time, dose: 200.0 mg/kg/injection, schedule: Q04DX003 (ip), vehicle: saline) was 98 % of control [survivor count not shown] and the T/C (T/C endpoint: mean survival time, dose: 200.0 mg/kg/injection, schedule: Q04DX003 (ip), vehicle: water) was 97 % of control [survivor count not shown]. For the same compound, the T/C (T/C endpoint: mean survival time, dose: 200.0 mg/kg/injection, schedule: Q04DX005 (ip), vehicle: saline) was 210 % of control [survivor count not shown], the T/C (T/C endpoint: mean survival time, dose: 200.0 mg/kg/injection, schedule: Q08DX002 (ip), vehicle: saline) was 354 % of control [survivor count not shown] and the T/C (T/C endpoint: mean survival time, dose: 200.0 mg/kg/injection, schedule: Q08DX003 (ip), vehicle: saline) was 245 [survivor count not shown] and 370 % of control [survivor count not shown]. For the same compound, the T/C (T/C endpoint: mean survival time, dose: 210.0 mg/kg/injection, schedule: Q01DX001 (ip), vehicle: saline) was 515 % of control [survivor count not shown], the T/C (T/C endpoint: mean survival time, dose: 225.0 mg/kg/injection, schedule: Q01DX001 (ip), vehicle: saline) was 148 [survivor count not shown] and 329 % of control [survivor count not shown] and the T/C (T/C endpoint: mean survival time, dose: 250.0 mg/kg/injection, schedule: Q08DX002 (ip), vehicle: water) was 90 [survivor count not shown] and 122 % of control [survivor count not shown]. The T/C (T/C endpoint: mean survival time, dose: 300.0 mg/kg/injection, schedule: Q01DX001 (ip), vehicle: saline) was 190 [survivor count not shown] (2×), 258 [survivor count not shown], 466 % of control [survivor count not shown], the T/C (T/C endpoint: mean survival time, dose: 320.0 mg/kg/injection, schedule: Q01DX001 (oral), vehicle: saline) was 113 % of control [survivor count not shown] and the T/C (T/C endpoint: mean survival time, dose: 337.0 mg/kg/injection, schedule: Q01DX001 (ip), vehicle: saline) was 143 % of control [survivor count not shown]. The T/C (T/C endpoint: mean survival time, dose: 400.0 mg/kg/injection, schedule: Q01DX001 (ip), vehicle: saline) was 84 [survivor count not shown], 90 [survivor count not shown], 91 % of control [survivor count not shown], the T/C (T/C endpoint: mean survival time, dose: 450.0 mg/kg/injection, schedule: Q01DX001 (ip), vehicle: saline) was 195 % of control [survivor count not shown] (2×) and the T/C (T/C endpoint: mean survival time, dose: 500.0 mg/kg/injection, schedule: Q01DX001 (ip), vehicle: saline) was 160 % of control [survivor count not shown]. The T/C (T/C endpoint: median survival time, dose: 50.0 mg/kg/injection, schedule: Q01DX001 (ip), vehicle: saline) was 122 [survivor count not shown], 127 [survivor count not shown], 150 % of control [survivor count not shown], the T/C (T/C endpoint: median survival time, dose: 100.0 mg/kg/injection, schedule: Q01DX001 (ip), vehicle: saline) was 136 [survivor count not shown], 142 [survivor count not shown], 177 % of control [survivor count not shown] and the T/C (T/C endpoint: median survival time, dose: 100.0 mg/kg/injection, schedule: Q08DX003 (ip), vehicle: saline) was 205 % of control [survivor count not shown]. For the same compound, the T/C (T/C endpoint: median survival time, dose: 200.0 mg/kg/injection, schedule: Q01DX001 (ip), vehicle: saline) was 150 [survivor count not shown], 155 [survivor count not shown], 188 % of control [survivor count not shown], the T/C (T/C endpoint: median survival time, dose: 200.0 mg/kg/injection, schedule: Q08DX003 (ip), vehicle: saline) was 583 % of control [survivor count not shown] and the T/C (T/C endpoint: median survival time, dose: 400.0 mg/kg/injection, schedule: Q01DX001 (ip), vehicle: saline) was 40 % of control [survivor count not shown].
